# Test results reported in the supplement of paper PMC11150407.
# The campaign covered roughly 3,000 compounds. About 45 (2%) showed an effect of 50% or more. Some of the results follow.
# System: MOLM1 and UCSD/AML1 (averaged)
# Test: cell viability relative to DMSO control (POC); higher = less growth inhibition
# Conditions: 1 µM; 72 h
# Procedure: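 Primary viability screen in the 3q26 EVI1-high AML cell lines MOLM1 and UCSD/AML1, compounds at 1 uM for 72 h. ATP CellTiter-Glo read-out given as percent viable over DMSO control (POC), averaged over duplicates. This mapping covers the TimTec NDL-3000 natural derivative library, whose compounds are identified by TimTec catalogue codes (ST...).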
row,SMILES,cell viability [%]
1,COc1cc(C2C(=O)c3cc(OC)c(OC)c(OC)c3C2=O)cc(OC)c1OC (configuration not stated),110
2,CCc1ccc(N(CC)C(=O)CSc2nc3ccccc3c(=O)[nH]2)cc1,106
3,Cc1[nH]c2ccc(Br)cc2c1CCNC(=O)c1cccs1,100
4,O=C(Cc1n[nH]c(=O)[nH]c1=O)N/N=C/c1ccccc1[N+](=O)[O-],98.9
5,O=C(Cn1c(=O)cc(C(=O)N2CCCC2)c2ccccc21)Nc1cccc(C(F)(F)F)c1,95.3
6,COc1cccc(-c2nc(CSc3nc4c(=O)[nH]cnc4n3C)c(C)o2)c1OC,123
7,O=C(/C=C/c1ccc(-n2c(=O)c3cc4c(=O)n(-c5ccc(/C=C/C(=O)c6ccccc6)cc5)c(=O)c4c(C(=O)c4ccc(Cl)cc4)c3c2=O)cc1)c1ccccc1,104
8,CCOC(=O)C1=C(N)Oc2c(oc(CO)cc2=O)C1c1cc([N+](=O)[O-])ccc1Cl (configuration not stated),87.1
9,Cc1cc2c(C(C)C)c(O)c(O)c(/C=N/NC(=O)NC3CCCCC3)c2c(O)c1-c1c(C)cc2c(C(C)C)c(O)c(O)c(/C=N/NC(=O)NC3CCCCC3)c2c1O,103
10,COc1cc(C2C(C#N)=C(N)SC(N)=C2C#N)cc([N+](=O)[O-])c1O,93.2
11,COC(=O)/C=C/c1ccc(OC)c(OC)c1OC,98.3
12,CCN(CC)c1ccc(C2C3CCCCC3(O)CCN2C(=O)/C=C/c2ccc(OC)cc2)cc1 (configuration not stated),85.6
13,NC(=O)CC1CCCCN1 (configuration not stated),126
14,O=C(Oc1ccc2c(=O)c(Cl)coc2c1)c1cccnc1,105
15,COc1ccc(C(=O)CCNc2cc(OC)c(OC)c(OC)c2)cc1OC,107
16,Cc1cc2c(C(C)C)c(O)c(O)c(C=NCCN3CCN(C)CC3)c2c(O)c1-c1c(C)cc2c(C(C)C)c(O)c(O)c(C=NCCN3CCN(C)CC3)c2c1O,98.8
17,O=c1cc(C(Cl)(Cl)Cl)oc2ccc(Cl)cc12,7.16
18,Cc1ccc2oc(-c3ccc(Cl)cc3)cc(=O)c2c1,85.9
19,COc1cc(O)c(C(=O)Cc2ccccc2Cl)c(OC)c1,103
20,CC(=O)CCCCC(=O)CCCCC(=O)O,115
21,CC(=O)NC(C)C(=O)O (configuration not stated),102
22,COc1ccc(C2CC(=O)c3cc(Cl)ccc3O2)cc1OC (configuration not stated),84.9
23,CC(=O)NC(Cc1c[nH]c2ccccc12)C(=O)NCCOc1ccccc1-c1ccccc1 (configuration not stated),100
24,COC1OC(COC(c2ccccc2)(c2ccccc2)c2ccccc2)C(O)C(O)C1O (configuration not stated),97.1
25,COc1ccc(S(=O)(=O)Nc2ccc(C(=O)NCC(=O)O)cc2)cc1-n1cnnn1,91.6

row,SMILES,cell viability [%]
1,Brc1cc(Br)c2c(c1)C=C1CCCCCC1(N1CCOCC1)O2 (configuration not stated),117
2,Cc1cc2c(C(C)C)c(O)c(O)c(C=NC(C)CCc3ccco3)c2c(O)c1-c1c(C)cc2c(C(C)C)c(O)c(O)c(C=NC(C)CCc3ccco3)c2c1O (configuration not stated),96.3
3,CC(=O)Oc1ccc(/C=C/C(=O)OCC2OC(Oc3cc(OC(C)=O)c4c(c3)O[C@H](c3ccc(OC(C)=O)cc3)CC4=O)C(OC(C)=O)C(OC(C)=O)C2OC(C)=O)cc1 (some centres not stated),89.5
4,COc1cc(/C=N/NC(=O)C(O)(c2cccc(C)c2)c2cccc(C)c2)cc(OC)c1OC,91.5
5,O=C(c1ccccc1)N1CCN(CC(O)Cn2c3ccccc3c3ccccc32)CC1 (configuration not stated),99.4
6,O=C(c1cc2nc(-c3ccccc3)cc(C(F)(F)F)n2n1)N1CCc2ccccc2C1,95.1
7,COc1ccc2c(c1)c(CC(=O)NC13CC4CC(CC(C4)C1)C3)c(C)n2C(=O)c1ccc(Cl)cc1,77
8,Cc1cc2c(c(O)c1-c1c(C)cc3c(c1O)/C(=C/Nc1ccc(-c4ccc(N)cc4)cc1)C(=O)C(O)=C3C(C)C)/C(=C/Nc1ccc(-c3ccc(N)cc3)cc1)C(=O)C(O)=C2C(C)C,66.4
9,COc1ccc(/C=C/C(=O)Nc2cccc3ccccc23)cc1OC,97.8
10,COc1cc(C2C3CCCCC3(O)CCN2CC(=O)NCc2ccco2)cc(OC)c1OC (configuration not stated),99.5
11,CCOc1cccc(C2Nc3ccccc3NC3=C2C(=O)CC(C)(C)C3)c1 (configuration not stated),86.3
12,O=C(NNC1OC(CO)C(O)C(O)C1O)c1cccnc1 (configuration not stated),98.5
13,Cc1[nH]c2ccccc2c1CCNC(=O)c1c(F)cccc1F,97.4
14,O=C(O)C1Nc2c(I)cccc2C2C=CCC12 (configuration not stated),93.1
15,COc1cc(C(=O)Nc2ccc(C(F)(F)F)cc2)cc(OC)c1OC,93.8
16,COc1cc(C2C(C#N)=C(N)Oc3cc(N)ccc32)cc(OC)c1OC (configuration not stated),13.5
17,COc1cc(C(=O)CCNc2ccc(C)c(Cl)c2)cc(OC)c1OC,97.9
18,CCOC(=O)C(Cc1c[nH]c2ccccc12)NC(=O)C12CC3CC(CC(C3)C1)C2 (configuration not stated),97
19,COc1ccc2c(c1)c(CC(=O)NCCSc1ccccc1)c(C)n2C(=O)c1ccc(Cl)cc1,98.5
20,O=c1cc(-c2cccc(O)c2)oc2cc(O)c(O)cc12,101
21,CCOC(=O)/C=C/C(=O)Nc1ccccc1-c1ccccc1NC(=O)/C=C/C(=O)OCC,60.3
22,Cn1c(=O)c2c(ncn2CC(=O)NCc2ccc(S(N)(=O)=O)cc2)n(C)c1=O,95.2
23,Cc1ccc(-n2c(SCC(=O)Nc3cccc(C(F)(F)F)c3)nc3c(=O)[nH]cnc32)cc1,112
24,Cc1ccc(-n2c(SCC(=O)Nc3ccc(Cl)cc3)nc3c(=O)[nH]cnc32)cc1,97.1
25,CCOc1ccc2oc(=O)cc(CN3CCN(CC(=O)N4CCc5ccccc54)CC3)c2c1,90

row,SMILES,cell viability [%]
1,COc1cc(-c2nc(CSc3nc4c(=O)[nH]c(C)nc4n3C)c(C)o2)cc(OC)c1OC,99.8
2,COc1cc(C(=O)c2nccc3cc(OC)c(OC)cc23)c([N+](=O)[O-])cc1OC,98.4
3,CCCCCCc1ccc(O)cc1O,90.1
4,COc1ccc(/C=C/C(=O)Nc2ccccc2)cc1,102
5,NC(=O)Cc1ccc(O)cc1,98
6,O=c1cc(-c2ccc(Br)cc2)oc2ccc(Br)cc12,94.2
7,Cc1ccc(C(=O)N/C(=C\c2ccco2)C(=O)NCCc2c(C)[nH]c3ccccc23)cc1,99.6
8,CCN1C=C(C(=O)OC)C(c2cc(OC)c(OC)c(OC)c2)C(C(=O)OC)=C1,113
9,COc1cc(C2NC(=O)NC(C)=C2C(=O)OC2CCCCCCC2)cc(Cl)c1O (configuration not stated),71
10,CN1/C(=C\C(=O)Nc2ccc(Cl)cc2)c2ccccc2CC1(C)C,85.5
11,CCOc1ccccc1NC(=O)c1ccc2c(c1)OCO2,103
12,COc1ccc(S(=O)(=O)N2Cc3ccccc3CC2C(=O)NCc2ccccc2)cc1 (configuration not stated),103
13,COc1cccc(/C=C/C(=O)c2ccc3c(c2)OCO3)c1,96.7
14,CCOCCOC(=O)C1=C(C)NC2=C(C(=O)CCC2)C1c1cc(Cl)c(O)c(OC)c1 (configuration not stated),111
15,CNC(=O)c1ccc(OC)c(OC)c1,105
16,COc1cc(OC)cc(C(=O)N2CCN(S(=O)(=O)c3ccc4ccccc4c3)CC2)c1,102
17,O=C(Oc1ccc2oc(-c3ccco3)cc(=O)c2c1)c1cccnc1,101
18,O=C(Cn1c(=O)cc(C(=O)N2CCc3ccccc3C2)c2ccccc21)Nc1ccc(F)cc1,117
19,COc1cc2nc(SCc3nc4ccccc4[nH]3)[nH]c2cc1OC,98.9
20,COc1ccc(C=O)cc1COc1ccc2c(c1)CCC2,47.2
21,Cc1cc(C)cc(OCC(=O)N/N=C/c2ccc3c(c2)OCO3)c1,97.3
22,COc1ccc(C(=O)C2[C@H]3C4COC(O4)C(=O)[C@H]3[C@@H]3c4ccccc4C=CN23)cc1 (some centres not stated),100
23,CC(=O)[C@H]1CC[C@H]2[C@@H]3C[C@H](C)C4=CC(=O)CC[C@]4(C)[C@H]3[C@@H](O)C[C@]12C,77.3
24,CNC(=O)c1cc(=O)n(CC(=O)Nc2cccc(F)c2)c2ccccc12,103
25,CC(C)(C)C(=O)CSc1ncnc2c1ncn2CC(=O)C(C)(C)C,99.5

# Quoted at random: 7 records from the list, in no set order.
row,SMILES,cell viability [%]
8,CCN1C=C(C(=O)OC)C(c2cc(OC)c(OC)c(OC)c2)C(C(=O)OC)=C1,113
22,COc1ccc(C(=O)C2[C@H]3C4COC(O4)C(=O)[C@H]3[C@@H]3c4ccccc4C=CN23)cc1 (some centres not stated),100
17,O=C(Oc1ccc2oc(-c3ccco3)cc(=O)c2c1)c1cccnc1,101
10,CN1/C(=C\C(=O)Nc2ccc(Cl)cc2)c2ccccc2CC1(C)C,85.5
9,COc1cc(C2NC(=O)NC(C)=C2C(=O)OC2CCCCCCC2)cc(Cl)c1O (configuration not stated),71
13,COc1cccc(/C=C/C(=O)c2ccc3c(c2)OCO3)c1,96.7
18,O=C(Cn1c(=O)cc(C(=O)N2CCc3ccccc3C2)c2ccccc21)Nc1ccc(F)cc1,117

# Going on with the list:

row,SMILES,cell viability [%]
1,COc1ccc(C2NC(C(=O)O)Cc3c2[nH]c2ccccc32)cc1OC (configuration not stated),109
2,O=C(O)/C(=C/c1ccccc1)c1ccccc1,105
3,Cc1cc(=O)[nH]c(SCC(=O)Nc2cccc(C)c2C)n1,114
4,COc1cc2c(cc1OC)CN(C(=O)c1sc3nc(C4CC4)cc(C(F)(F)F)c3c1N)CC2,99.6
5,CCOc1ccc2oc(=O)cc(CN3CCN(CC(=O)N(C)c4ccccc4)CC3)c2c1,99.1
6,Cn1c(C(=O)Nc2cccc(Cl)c2Cl)cc(=O)n(C)c1=O,95.9
7,Cc1ccc2c(CN3CCN(Cc4nc(-c5ccc(Cl)cc5)oc4C)CC3)cc(=O)oc2c1,98.5
8,Cc1nc2c(nc(SCc3nc(-c4ccc(OC(C)C)cc4)oc3C)n2C)c(=O)[nH]1,99
9,COC(=O)C1=C(N)Oc2c(oc(CO)cc2=O)C1c1ccccc1[N+](=O)[O-] (configuration not stated),104
10,Nc1c(Br)c(=O)[nH]c(=O)n1-c1ccccc1Cl,112
11,CC(=O)O/C(=C\c1cn(C(C)=O)c2ccccc12)C(=O)O,87.4
12,CCc1ccc(NC(=O)CSc2nc3ccccc3c(=O)[nH]2)cc1,97
13,COc1cc(-c2nn(CNc3ccc(F)cc3)c(=S)o2)cc(OC)c1OC,91.1
14,O=C(NC(Cc1ccccc1)C(=O)O)OCc1ccccc1 (configuration not stated),101
15,N#CC1=C(N)Oc2c(oc(CO)cc2=O)C1c1cccc2ccccc12 (configuration not stated),108
16,COc1cc(NC(=O)Cn2c(=O)cc(C(=O)N3CCOCC3)c3ccccc32)cc(OC)c1,95.4
17,Cn1c(=O)[nH]c(=O)c2c1nc(N/N=C/c1cccc([N+](=O)[O-])c1)n2Cc1ccccc1Cl,97.5
18,Nc1c(C(=O)N2CCC[C@H]2C(=O)O)sc2nc3c(cc12)CCCC3,91.8
19,O=C(Nc1ccc(I)cc1)C(Cc1c[nH]c2ccccc12)NC(=O)C(c1ccccc1)c1ccccc1 (configuration not stated),93
20,CCN(CC)C(=O)c1cc(=O)n(CC(=O)Nc2cccc(Br)c2)c2ccccc12,98.6
21,CN(C)S(=O)(=O)Nc1ccc(S(=O)(=O)N2CCc3ccccc3C2)cc1,98.2
22,COc1cc(/C=N/NC(=O)CCC(=O)Nc2ccccc2C)cc(OC)c1OC,91.6

# Laid out differently: results already given.
row	SMILES	cell viability [%]
12	CCc1ccc(NC(=O)CSc2nc3ccccc3c(=O)[nH]2)cc1	97
19	O=C(Nc1ccc(I)cc1)C(Cc1c[nH]c2ccccc12)NC(=O)C(c1ccccc1)c1ccccc1 (configuration not stated)	93
